## Library screen at single concentrations

Chains of the proteins cited; added tags and fusions are not shown.
UniProt P9WPC5, whole entry: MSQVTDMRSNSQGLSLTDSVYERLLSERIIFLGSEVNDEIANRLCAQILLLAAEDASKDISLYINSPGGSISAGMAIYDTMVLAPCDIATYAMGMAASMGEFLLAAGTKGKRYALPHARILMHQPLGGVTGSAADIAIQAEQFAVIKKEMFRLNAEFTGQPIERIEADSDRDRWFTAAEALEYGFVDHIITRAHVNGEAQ
UniProt P9WPC3, whole entry partner: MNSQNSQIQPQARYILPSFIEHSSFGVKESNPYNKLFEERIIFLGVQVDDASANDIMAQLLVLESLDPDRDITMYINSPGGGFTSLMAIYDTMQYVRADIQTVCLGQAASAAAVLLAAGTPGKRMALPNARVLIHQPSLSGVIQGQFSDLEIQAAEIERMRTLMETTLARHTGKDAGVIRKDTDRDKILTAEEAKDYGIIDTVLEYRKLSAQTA

Values are the deposited “Percent Effect”, in %. The record does not define 0% and 100%; most values in the screen are far below 50% and negative numbers occur (in some assays of this library far below -100). Compounds were drawn at random from those tested, without regard to their results.

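ClpP1P2, Mycobacterium tuberculosis (UniProt P9WPC5 and UniProt P9WPC3). Protease assay of ClpP1P2, read by the AMC dye that it sets free. Tested at 50 µM. Higher reads as stronger inhibition, judged from the few compounds that gave an IC50. Most other retested compounds had strongly negative values. Of about 69,000 compounds tested this way, about 10 (0.015%) reached 50% or more in at least one test.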

Result for CN(Cc1ccc2c(c1)OCCO2)c1ncc(S(N)(=O)=O)s1 was 0.9806%. CCc1csc(C2CCCN(C(=O)c3cc(C4CC4)[nH]n3)C2)n1 (stereo unspecified) gave -11.61%. With Cn1cc(C(=O)N2CC[C@@H]3[C@@H]2CCN3c2ccccn2)cn1 the screen gave -0.3747%. With Cc1nc(CCNC(=O)NC(C)c2ccc3c(c2)OCCO3)cs1 (stereo unspecified) the screen gave -14.13%.

Result for O=C(Nc1ccncc1)N(CCO)Cc1ccsc1 was -20.88%. With Cn1c(N)c2c(=O)n(C)c(-c3ccccc3)cc2c(C#N)c1=O the screen gave -12.75%. For Cc1cc(OC(F)F)c(C(=O)N2CCC(N(C)C)CC2)s1 the result was -3.772%. Cn1nc(Cn2cccc2)c2c1CN(Cc1ccoc1)C2 read 10.38%.

For Cc1cccc(C(=O)N2CC(=O)N(c3ccccc3Cl)CC2C)n1 (stereo unspecified) the result was 2.703%. CCn1nc(C)cc1C(=O)OCC1CC(=O)N(Cc2ccccc2)C1 (stereo unspecified) read -8.281%. With Cc1cnn(C2CCCN(C(=O)c3ccnc(-n4ccnc4)c3)C2)c1 (stereo unspecified) the screen gave 5.046%. CC(C)N(CC(=O)Nc1cccc(C(=O)N(C)C)c1)C1CC1 read -4.178%.

Result for CN(CC1CCOC1)S(=O)(=O)c1cccc(C(=O)N2CCOCC2)c1 (stereo unspecified) was 11.19%. CC(=O)c1ccc(Nc2nc(N)nc3c2nc(C)n3C)cc1 read -11.79%. c1cn(Cc2nnc(C3CCN(c4nccs4)CC3)n2C2CC2)cn1 gave -8.015%. With Cn1nc(C(=O)N2CCOCC2)cc1C(=O)Nc1cc(Cl)cc(Cl)c1 the screen gave -7.595%.

For Cc1cccc(-c2nc(N)nc3c2CN(C(=O)C2CCCC2)C3C)c1 (stereo unspecified) the result was -0.6571%. For O=C(c1ccc(F)cc1)N1C[C@H]2CCC[C@@]2(COCc2ccncc2)C1 the result was -0.264%. For CCc1nc(C2CCCN2CCS(=O)(=O)c2ccccc2)no1 (stereo unspecified) the result was -5.384%. Cc1nc(C)n(CCC(=O)N2CCc3ncc(Cl)cc3C2)n1 read -4.084%.

With O=C(CN1CCCC1Cn1cncn1)Nc1ccc(Cl)cn1 (stereo unspecified) the screen gave -10.17%. CCCN1CCC2(C1)c1ccccc1S(=O)(=O)N2C (stereo unspecified) gave -12.01%. With CCC(=O)N1CCC2(CC1)C(=O)N(C)CCN2Cc1csc(C)n1 the screen gave 6.785%. O=C(CCc1ccc(Cl)s1)NCc1nnc2n1CCCCC2 gave -9.642%.

CC(Nc1cccc(CN2CCOC2=O)c1)C(=O)Nc1ccccc1 (stereo unspecified) read -13.55%. With O=C1CC2(CCN(Cc3ccoc3)C2)CN1c1ccc2c(c1)OCO2 (stereo unspecified) the screen gave -2.901%. For CN(C)C(=O)CN1C[C@H]2CCN(C(=O)c3ccccc3)CC[C@H]2S1(=O)=O the result was 7.254%. Result for CN(CC1CCOC1)S(=O)(=O)c1cccc(C(=O)N2CCCCCC2)c1 (stereo unspecified) was -4.455%.

With Cc1nccc(-c2cccc(NCC(=O)N3CCCC(C)C3)c2)n1 (stereo unspecified) the screen gave -17.02%. O=C(Nc1nc(-c2ccccc2)ns1)N1CCC(CO)CC1 gave -11.17%. Cc1nn(C)c(N(C)C)c1CNC1CCCCNC1=O (stereo unspecified) read 5.981%. Result for CN(C)CCN1CCC2(CCCN(Cc3cccn3C)C2)C1=O (stereo unspecified) was -2.172%.

With CN(CCn1nc2ccccn2c1=O)CC(=O)N1CCCC1 the screen gave -2.572%. CCC(=O)N1CCC(Cc2ccccc2-c2cccc(C)c2)(C(N)=O)C1 (stereo unspecified) read -2.895%. CS(=O)(=O)CCN(CCCO)C1CCc2ccccc21 (stereo unspecified) read -11.88%. With CNC(=O)CN1CCC2(CCCN(CC3CCOC3)C2)CC1 (stereo unspecified) the screen gave -9.763%.

For COCc1nc(C(=O)NS(=O)(=O)c2ccc(F)c(F)c2)cs1 the result was -5.322%. With CCc1noc(CN(CC)Cc2cc3ccc(C)cc3[nH]c2=O)n1 the screen gave 4.875%. CC(C)CCN1CC[C@H](c2nnc(Cc3c[nH]c4ccccc34)o2)C1 read 3.623%. Result for c1cncc(C2COC3(CCN(Cc4nccs4)CC3)C2)c1 (stereo unspecified) was -11.17%.

Cc1c(S(=O)(=O)N2CCOCC2)cc2c(C)cc(=O)n3c2c1CCC3 read 19.53%. Result for Cc1cccc(C(=O)N2C[C@@H]3CCN(C(C)C)C[C@@H]3C2)c1 was -4.157%.

The last 4 entries again:

{"compound": "CC(C)CCN1CC[C@H](c2nnc(Cc3c[nH]c4ccccc34)o2)C1", "Percent Effect": 3.623}
{"compound": "c1cncc(C2COC3(CCN(Cc4nccs4)CC3)C2)c1", "stereo": "stereo unspecified", "Percent Effect": -11.17}
{"compound": "Cc1c(S(=O)(=O)N2CCOCC2)cc2c(C)cc(=O)n3c2c1CCC3", "Percent Effect": 19.53}
{"compound": "Cc1cccc(C(=O)N2C[C@@H]3CCN(C(C)C)C[C@@H]3C2)c1", "Percent Effect": -4.157}

From ChEMBL document CHEMBL3988442, “University of Dundee, Small-Polar-MMV Screening Library” (2021).